Measurements from patent US10233240.
Results are given in words; binding and its absence hold for the method and conditions named. In cells and extracts the contact can be indirect. Some binding calls cover weakened binding; strength is not graded here.

Tests used:
[1] = target: T1, Mesothelin (mouse) (UniProt Q61468); assay: co-immunoprecipitation with anti-Msln Ab from immortalized aPF lysates, Western blot
T1 sequence (looked up): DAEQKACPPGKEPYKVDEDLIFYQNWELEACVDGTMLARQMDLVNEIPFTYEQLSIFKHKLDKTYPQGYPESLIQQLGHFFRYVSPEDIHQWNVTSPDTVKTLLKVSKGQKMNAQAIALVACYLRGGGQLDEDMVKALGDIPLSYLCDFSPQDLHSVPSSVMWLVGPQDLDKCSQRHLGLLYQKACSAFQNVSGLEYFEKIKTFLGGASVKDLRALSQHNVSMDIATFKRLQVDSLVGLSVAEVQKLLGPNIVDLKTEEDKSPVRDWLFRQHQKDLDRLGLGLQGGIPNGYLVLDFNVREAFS

[2] = target: T1, Mesothelin (mouse); assay: co-immunoprecipitation with anti-Msln Ab, Western blot for Thy-1, n=3

binding [2]: binds
B1: Thy-1 (protein, mouse, UniProt P01831 20-131, looked up)
chain: QKVTSLTACLVNQNLRLDCRHENNTKDNSIQHEFSLTREKRKHVLSGTLGIPEHTYRSRVTLSNQPYIKVLTLANFTTKDEGDYFCELQVSGANPMSSNKSISVYRDKLVKC
binding [1]: binds
